For assay [1], the target named is PLP^F2-F3 (aa 584-1811), yeast two-hybrid fusion (Drosophila). The assay is described as follows: two-hybrid.
Assay [2] concerns the target PLP^F2 (aa 584-1376), yeast two-hybrid fusion (Drosophila). Put plainly: two-hybrid.

These are yes or no findings as the source states them, for the method shown. A result given as binding can be weak or reduced; the word gives no strength. Sequences can lack the tags named with a protein.

B1: Poe^F1 (aa 1-1100), yeast two-hybrid fusion (domain or fragment, UniProt Q9VLT5 1-1100)
chain: MSAHSGGTDWNSVVKALILNRTGALNKNEVVNLLKAITRCEHDFFEEESNFTQFYTAFAALAADKLMQIKTICQTQICQLHDATAVLIRFIIYRLPRVSVYETKWLLGALKMLCEGRECPASASSSMFDYNAVANVLKSCKHPESTTKSIMPSSSSSGSGASNDKESPKSEIKRSRSDLSSVILQQLIAPLEPGKMTWVPLSEEVTDCTEQILAANVEYFQEQNGVDTLLDVCVSLPILNRYRSKYMETINGGKSLYLPLTQVEATAVKSSMNHMLTDLTILSQAQALIEMQPLTPSRIERLSMCGIAALYNAVLTSIATSVLGMSQASSSQKQTASTSQGSGVGGSSGGQSNKDHDDFEDQACSIVNKALEIYSNIGHMFKTSARIHVYQNHLCYGSWLLISGIQGAMGASGSGGSSSDSASKSASKATKSGSEAGTAPTTPIARVNLFKVQQGFGELNAAIANHSIKLLSELIEDLKVEAACGQSLESTELPEPAQFDILQNYSSLERIVRVLNTATLHQLFTFLATVAYRKACTLKRASAKDRTECEPISYSDSTTYFNDSLSCSDNSEEDDSESYLGHWFKETLSPETHDDNANTSTQERAEQKSALVPKLDEPHEYLDLAADIFCFLDQFLANRHAYMQRYVKAGVSDQQMLLMANIIKDFDRDVMRNESDQGSGNAPAASAGAGTSAGASTKWQTSMIRFSGAAGRYIHNLISTSLLSEQLQSNLLQHLSISPWSTDTNTWPLQVYPSTLSVLVQILLLKPTQEKEAACLSVWHRLINTLVEGVCSSNTASDSDYEDLNIEHAQLLLFLFHSLNLMQKKSILLLTAGGVIRCAEVCRGISEDRPVKNSQIMLLSRLLLFLEYLMKHLYNAPPELLDQVRWNLFSVSSMPDTQKITDLLNCRTKLNSYCRHDIEENFRKSAGEYGSSIRPTFYSLVMGDPEISYWAQEFKLDGLAWNFILCTPDKLKYPLLVDALTDILSITDMSMYSKEKDKEASMHNLCAIQYCFTIAWKLNLGLPPSTSHVESLKAERSPNLHSLMWSIRLPLASSHYLVVSSLIKQGMYTQYAETLWTHVGDIGADIKYSLKQTILGVEAF
As to B1, in assay [1], the binding entry was “binds”.

B2: Poe^F3 (aa 2301-3500), yeast two-hybrid fusion (domain or fragment, UniProt Q9VLT5 2301-3500)
chain: TGHPGLVYASMQTSNNPIILMITPERIYLQEIKAQSAKSRIMDVVGIRHAVAGVEKTTLLLLCEDGSLRIFSAQPEYTSFWLSPQVQPFGNQLYSSTLMAKGGGSGSTSKSKSNTASGKMTSRKASQQQKQPTAGGQPVFPIDFFEHCNMLADVEFGGNDLLQIYNKQKLKTRLFSTGMFVASTRSNGFTLEVINNDPNVVIVGIRVLIGTQDVQRAPQSVTILGRTIPTPVRRARWFDIPLTREEMLQSDKLLKVVFAKAPDPEHVTLLDCIEVYGKSKELVGWPDESEDVTVPGSSAPAVSSSQASSANFGEGFNCITQLDRMANHLLEVMDCALHLLGSGVPASMRQKAVKTASALLLLPTPNPVQTQARYVLATLYGTRALYHNYKDGVLLQFVNRELQSMQPKLEKLETLREIDPEAFYRLVLMVRGIANARPQSLAKICVENNYDIVPTLMGIVLELHKVTPTLDEPVNIVKRGLCQPETIVHCLVEIMYGFALADPGQVGRMTKYFIDLLKHDASVISHSAKEALILLLSPRMKRRKVAIVTPPACSTPTPSTSTMQALQAAASSAASDIIEEAAGVVVDGSVGGGGLPEPNADAEGAAVGVGGVGQQQMLNLEAFMGGGFPRLLGLPEDADDEAIMDIAIALSLQQHGGDANALQSLQQGLANLQGIRQATAMAAAVNAAANVSLGGSDDDEGSNVATDGSTLRTSPAEPAGSGGSESGGSGVESIGGTSARSSNFGDHANASPPRQGSTKDDQEQPGPSGVAGSGGVAVLSAMSSSEDNEANEDDKLSKLHDLRIAVLESIIQHLGTFDLCNGLQAIPLIQVILMLTTDLNGNNERDQQVLHDLLTALVDYVEIGKRGAAARMETKCPGNEVRLALLSLFGVLMGKTKSKQTGTTSPPHQFKDNSSFVASTTANVLSKSGAFVYALEALNTLLVHWKNVLGDPYAAGGGLASQSAQASGGASGPGVQLLKPIKHGPKPDISILIPHNYLKNYPDIFESYDGLLTEIIVRLPYQILRLSSAHPDNYDSGFCEAMTFTLCEYMMLNLNTLLRRQVRKLLMYICGSKEKFRMYRDGHSLDAHFRVVKRVCNIVSSKTGAPYNANPPMLSYDALVELTEHLRTCQEISQMRTGNWQKFCVVHEDALAMLMEIACYQLDDGVSPIIIQLLQAAVCNLPPPSGSKQAQPQPSTSSAS
For B2, the binding entry in assay [1] was “no binding”.

B3: Hyd F4 (aa 2412-2887), yeast two-hybrid fusion (domain or fragment, UniProt P51592 2412-2885)
chain: AKIPNLESVQVGTNHSKYVVPFSSILRSRTVSGSSRDQSTLQRRGSNSKILWRSARERKALNLDARPYTPPNSSDNATPESLNDHLSVHLQQIGERLYPKIHSINQTHAPKITGMLLEIPTPQLLSVISSDETLRQKVNEAIEIITFKQKSETSAQSSQPKKSPSVVVVDPVDDDNEPLFYSPGKRGFYTPRQGFASFERINAFRNIGRLIGLCLLQNELLPLFLQRHVLKYILGRKIKFHDLAFFDPALYESFRQIIQNAQTKEGEETINRMELCFVIDLMKEEGCGNRELIPGGRDVAVTSSNIFEYVRRYTEYRLIKSQEKALEALKDGVFDVLPDNSMINLTAEDLRLLLNGVGDINVSTLISYTTFNDESSEGPDKLLKFKKWFWSIVEKMNIMERQDLVYFWTGSPALPASEEGFQPLPSVTIRPADDSHLPTANTCISRLYIPLYSSKSILRSKMLMAIKSKNFGFV
Regarding B3, the binding result in assay [2] was “binds”.

B4: Poe^F2-ZnF (aa 1621-2040), yeast two-hybrid fusion (domain or fragment, UniProt Q9VLT5 1621-2040)
chain: NPSEESSQACDHSDSERNGALLLSFVKSLVKDQSKASQIAPPLFQALLQLGQTLISPPQEGCDFADVLQIMITLADASPARGHVALFNTTLLWLELAKLQLPDKHLKHAENVSAQLRYLSELLQSIGFRGSRQHNPPWDDELQTDIDELYDELAEEGEQDSLLDDSDEDTLNNKLCTFSQTQKEFMNQHWYHCHTCNMINTVGVCSVCARVCHKGHDVSYAKYGNFFCDCGAKEDGSCQALSRRIGSNEVRDSAGIGSYLPSHMSLLAGKKRSSLPVGQPVLTRKDSLTNERIAVLTKLLEPYRETLQHQDQWLLVVRCILEYFDLLLPSINENCMLYSIVGCHKRATAALERLHLLEQSFQVTDQLMFATLGSQEGAFENVRMNYSGDQGQTIKHLLSSGVVRRVAFCCLSSPHGRRQQ
With B4, the binding result in assay [1] is listed as “binds”.

The values are drawn from article doi:10.1101/2022.01.21.477277.
